Laboratory results: PMC5634784, “Clearance of beta-amyloid is facilitated by apolipoprotein E and circulating high-density lipoproteins in bioengineered human vessels” (eLife, 2017)

Test system: bioengineered bipartite vessels
Experiment: Aβ accumulation in bioengineered bipartite vessels (ELISA, 6E10 immunostaining)
Assay type: cell-based, human

Aβ42: Recombinant Aβ42 peptide (California Peptide Research), soluble monomers
Aβ deposition in tissues engineered from brain- versus cord-derived cells (1 μM monomers anteluminal, 24 hr under flow, ELISA, at least four independent tissues): the differences were not significant
Aβ tissue levels after initial deposition (bipartite vessels, 1 μM monomeric Aβ anteluminal, ELISA time course): remained stable for up to 72 hr
retention of Aβ within the bioengineered vascular wall (bipartite vessels, monomers 0, 0.1, 1.0 and 10 μM injected anteluminally, 48 hr under flow, ELISA and 6E10 immunostaining, at least four independent tissues): dose-dependent retention
